Data taken from publication PMC7819943, “Rice protein-binding microarrays: a tool to detect cis-acting elements near promoter regions in rice”.
This is one part of the list.

Molecular target: T1, OsSMF1 (Oryza sativa, UniProt Q6ZLB0 1-436)
T1 sequence: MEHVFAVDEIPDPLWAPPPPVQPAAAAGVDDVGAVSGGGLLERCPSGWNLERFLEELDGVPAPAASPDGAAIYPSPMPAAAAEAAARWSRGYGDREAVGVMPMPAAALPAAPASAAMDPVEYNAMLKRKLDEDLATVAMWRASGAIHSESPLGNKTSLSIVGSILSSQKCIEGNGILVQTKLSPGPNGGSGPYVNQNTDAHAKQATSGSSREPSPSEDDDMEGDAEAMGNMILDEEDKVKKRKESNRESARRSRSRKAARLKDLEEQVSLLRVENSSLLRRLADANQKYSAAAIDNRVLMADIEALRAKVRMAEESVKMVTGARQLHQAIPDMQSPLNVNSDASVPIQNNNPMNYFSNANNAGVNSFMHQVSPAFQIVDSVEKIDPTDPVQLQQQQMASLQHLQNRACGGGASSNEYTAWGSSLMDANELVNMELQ
Experiment: protein-binding microarray (RPBM); PBS, 2% BSA, 51.3 ng/ul salmon testes DNA, 50 uM zinc acetate, 200 nM TF, 25 C, 1 h; high values mean tight binding
Conditions: protein: recombinant; tags: N-terminal polyhistidine and DsRed monomer fusion (pET32a); chain copies: 2; label: CyDye5-dUTP incorporated in the synthesized complementary strand; 3' TTTTT single-stranded linker to array surface; dsDNA, one strand shown
Method in brief: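 An Axon 4000B scanner gave the binding signal as per-feature fluorescence intensity in arbitrary units. This followed washing of a custom Agilent array that had been incubated for 1 h at 25 °C with 200 nM protein in PBS, 2% BSA, salmon testes DNA and 50 µM zinc acetate. The proteins were transcription factors fused at the N-terminus to polyhistidine and DsRed, expressed in E. coli BL21-CodonPlus and purified on Ni–NTA.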

Question: “GAATCCATCGACACGTTTCTTTCGTCAGAACAGTGTCCGTCGGAGTCACCTAGTGCAG” was tested. Which binding signal did it give?
Answer: 3420 fluorescence intensity (a.u.)

Question: “GTGGGACGTCTACCCAGCGCTGTGGTTGACTGGCGCGTGGCGGAGTCACCTAGTGCAG” was tested. Which binding signal did it give?
Answer: 3230 fluorescence intensity (a.u.)

Question: How did the binding signal turn out when “GGTGTAAAGTTAGTTTTGCTGTGTCACATCGGGTATTAAACGGAGTCACCTAGTGCAG” was run?
Answer: 3460 fluorescence intensity (a.u.)

Question: For “GTGTCCGAGGGATGTGGTCCGCGCGGCCCTTGCCAACAAGCGGAGTCACCTAGTGCAG”, which binding signal is on record?
Answer: 3160 fluorescence intensity (a.u.)

Question: How did the binding signal turn out when “CCCTCCGTCTCAAAATAATTTAACCAAGAACATGATCTGACGGAGTCACCTAGTGCAG” was run?
Answer: 18700 fluorescence intensity (a.u.)

Question: “TACACCTGACTGTCGACCCTCACCATCTAGACACTTCCATCGGAGTCACCTAGTGCAG” was tested. Which binding signal did it give?
Answer: 3590 fluorescence intensity (a.u.)

Question: With “CTGCGCTTCCGCCGACCACATCAGCTGCAGCACCAGCACCCGGAGTCACCTAGTGCAG” as the sequence, how does the binding signal read?
Answer: 4670 fluorescence intensity (a.u.)

Question: “GCCGCTCCGCTCGCCGGCGAGCTGCCGGGGAACTCCGGCGCGGAGTCACCTAGTGCAG” was tested. Which binding signal did it give?
Answer: 3390 fluorescence intensity (a.u.)

Question: With “CAAGAGATAAGGAGCAATCGATCCAGCGTGGCGGCATGCACGGAGTCACCTAGTGCAG” as the sequence, how does the binding signal read?
Answer: 3470 fluorescence intensity (a.u.)

Question: Which binding signal does the source give for “ACCAAACGACCTGGCCCTCCCTGCCCTCCTCTTCTTCTCCCGGAGTCACCTAGTGCAG” here?
Answer: 3350 fluorescence intensity (a.u.)

Question: For “TGGGAGTTCGTTTGTGATGCCAGCTCTGCCATGCATATTTCGGAGTCACCTAGTGCAG”, which binding signal is on record?
Answer: 3920 fluorescence intensity (a.u.)

Question: Which binding signal does the source give for “AAGTAAGATGCCACACACCATAGTCTGCTTCACTGTCAACCGGAGTCACCTAGTGCAG” here?
Answer: 3200 fluorescence intensity (a.u.)

Question: With “GTTTCCGTCGTTGTTTGCTCCGCCACGAGGGCGCGCTACACGGAGTCACCTAGTGCAG” as the sequence, how does the binding signal read?
Answer: 3350 fluorescence intensity (a.u.)

Question: How did the binding signal turn out when “TAGTCCAATCCATCGTGTTTCCACGTGGCGACCCAACCCCCGGAGTCACCTAGTGCAG” was run?
Answer: 40000 fluorescence intensity (a.u.)

Question: “TGGAAATTACCATTTGCCTACTCCCATCGTGTCACCAGAACGGAGTCACCTAGTGCAG” was tested. Which binding signal did it give?
Answer: 4220 fluorescence intensity (a.u.)

Question: Which binding signal does the source give for “CTTAAATTACAAAGAACGACACAAAGTGTCCTAGAATGAACGGAGTCACCTAGTGCAG” here?
Answer: 4340 fluorescence intensity (a.u.)

Question: “AGCCCGGTGACGGTGCGGGAGTGCAACACCAACTGGTTCGCGGAGTCACCTAGTGCAG” was tested. Which binding signal did it give?
Answer: 4220 fluorescence intensity (a.u.)

Question: How did the binding signal turn out when “AGGCAACAGACTCACCGTAGTAGATGGTGACGTTAACTCTCGGAGTCACCTAGTGCAG” was run?
Answer: 3890 fluorescence intensity (a.u.)

Question: “AAACTGCCAAAACCGCCACGTCCGTAGCACGCTAAAACCTCGGAGTCACCTAGTGCAG” was tested. Which binding signal did it give?
Answer: 8860 fluorescence intensity (a.u.)

Question: How did the binding signal turn out when “CATGAATTTCTTTGTTCATCCAAGGGTAAAATGGTCATTTCGGAGTCACCTAGTGCAG” was run?
Answer: 3920 fluorescence intensity (a.u.)

Question: For “CGTGTCGTCCCAATCCGCCACGTCCTCGCCCAAAGCTCCACGGAGTCACCTAGTGCAG”, which binding signal is on record?
Answer: 9620 fluorescence intensity (a.u.)

Question: “CGCACGCAACGCCACGTCAGCAATAATCCGCGGTGTCGCTCGGAGTCACCTAGTGCAG” was tested. Which binding signal did it give?
Answer: 17900 fluorescence intensity (a.u.)

Question: For “GCGCTAAATCCACTTGTCGACGTGGATGCTCTATGTTTCTCGGAGTCACCTAGTGCAG”, which binding signal is on record?
Answer: 8620 fluorescence intensity (a.u.)

Question: With “CAATGAAAGAGAGCGATGGCGCGTGTTTATATTTCGCTATCGGAGTCACCTAGTGCAG” as the sequence, how does the binding signal read?
Answer: 3850 fluorescence intensity (a.u.)

Question: How did the binding signal turn out when “CCTCTACATTTCGTTTTAGATCCGCGCCCATGTGGCTATACGGAGTCACCTAGTGCAG” was run?
Answer: 3610 fluorescence intensity (a.u.)

Question: With “GGATGGAGTTAGTACGTCATAGATTCGATACTCCATACGTCGGAGTCACCTAGTGCAG” as the sequence, how does the binding signal read?
Answer: 3370 fluorescence intensity (a.u.)

Question: With “ATATGTGCTGGCCGCTGAGGTATACAGTATATGGGCCAACCGGAGTCACCTAGTGCAG” as the sequence, how does the binding signal read?
Answer: 3580 fluorescence intensity (a.u.)

Question: Which binding signal does the source give for “ATAGCCCGTCCTCTTCATGGACCACGGTGTACAGCTTGCTCGGAGTCACCTAGTGCAG” here?
Answer: 3980 fluorescence intensity (a.u.)

Question: “GCCCTCGCGCCACGTGGAGGTCACCTCCCATTTCCTCGTCCGGAGTCACCTAGTGCAG” was tested. Which binding signal did it give?
Answer: 13200 fluorescence intensity (a.u.)

Question: With “TTTTAATAGCCGGCCGTCGCCGTGGCGACCATCGTCATCGCGGAGTCACCTAGTGCAG” as the sequence, how does the binding signal read?
Answer: 4040 fluorescence intensity (a.u.)

Question: “TAAAATTACTAAAACAATGTGATCATCATATGCAGGCTTCCGGAGTCACCTAGTGCAG” was tested. Which binding signal did it give?
Answer: 3150 fluorescence intensity (a.u.)

Question: “GCTCCTCCCGTGCCGCCGCCGTCTCGCGCCAGTGCGTCTCCGGAGTCACCTAGTGCAG” was tested. Which binding signal did it give?
Answer: 3330 fluorescence intensity (a.u.)

Question: Which binding signal does the source give for “GATTGGCTGGCCCGGTGTCATGGAGTGGAGCCACGTGACACGGAGTCACCTAGTGCAG” here?
Answer: 4300 fluorescence intensity (a.u.)

Question: Which binding signal does the source give for “CTCGCCTCCCGCGCGCGCCGCCTCTTCCGTCGACGTCGCGCGGAGTCACCTAGTGCAG” here?
Answer: 3460 fluorescence intensity (a.u.)

Question: For “GATCCGGCGCGATAAAATGCGAGCCTCTCTCTCTCCCGGGCGGAGTCACCTAGTGCAG”, which binding signal is on record?
Answer: 3160 fluorescence intensity (a.u.)

Question: With “TCAACACTGAATACCATGTCTATCATCTAACACAATCGATCGGAGTCACCTAGTGCAG” as the sequence, how does the binding signal read?
Answer: 6720 fluorescence intensity (a.u.)

Question: How did the binding signal turn out when “CAATCATTCAAGTCTAAGACAGTGAATTGAGTTAGAGTAACGGAGTCACCTAGTGCAG” was run?
Answer: 30800 fluorescence intensity (a.u.)

Question: For “TTTTGTTCACTGATTTATGATTTATTTAAGAAGAGAGAGACGGAGTCACCTAGTGCAG”, which binding signal is on record?
Answer: 18500 fluorescence intensity (a.u.)

Question: How did the binding signal turn out when “AGGAGCGAATTTCACAAGGGAATTGCGTGGCGTGTCGACTCGGAGTCACCTAGTGCAG” was run?
Answer: 4380 fluorescence intensity (a.u.)

Question: How did the binding signal turn out when “AAATGCTGACTGGACTGCCACGTGTACGCCACGTAGACCACGGAGTCACCTAGTGCAG” was run?
Answer: 45400 fluorescence intensity (a.u.)

Question: With “GTAAATGGAGGCCGGCCCGGCCCATTTCAAACTAAATGTGCGGAGTCACCTAGTGCAG” as the sequence, how does the binding signal read?
Answer: 3250 fluorescence intensity (a.u.)

Question: For “CACCACCACGTGTTCGATCGCGTCCTCCAAGCCCCAGCACCGGAGTCACCTAGTGCAG”, which binding signal is on record?
Answer: 3680 fluorescence intensity (a.u.)

Question: How did the binding signal turn out when “GTTGTTGCAGCTTGGAAGAGTCTATTGCCGGATTCGTCACCGGAGTCACCTAGTGCAG” was run?
Answer: 3230 fluorescence intensity (a.u.)

Question: Which binding signal does the source give for “CACGCTCTGGCAACAATCTCTCCACGCAGACACGTCACGCCGGAGTCACCTAGTGCAG” here?
Answer: 22700 fluorescence intensity (a.u.)

Question: How did the binding signal turn out when “CTCCCTCCACACATCAGTTGTGCCCTCCTCATTTGCTGGTCGGAGTCACCTAGTGCAG” was run?
Answer: 3210 fluorescence intensity (a.u.)

Question: Which binding signal does the source give for “TCTCTCCTCCTCCCATCTCCGCTTCCCTTCTTCTTCTTCTCGGAGTCACCTAGTGCAG” here?
Answer: 19000 fluorescence intensity (a.u.)

Question: Which binding signal does the source give for “ACCAACGAATTATCTGTTGCCTAAGACTGTGACTCACTAGCGGAGTCACCTAGTGCAG” here?
Answer: 4600 fluorescence intensity (a.u.)

Question: Which binding signal does the source give for “AAAGCCCTTACGGGGAAAAGAAACCATGATGCTGACTGGTCGGAGTCACCTAGTGCAG” here?
Answer: 5720 fluorescence intensity (a.u.)

Question: For “AATTTCTACGCCCATGTCAGCGGTGACGACGCGCGCGCGTCGGAGTCACCTAGTGCAG”, which binding signal is on record?
Answer: 4430 fluorescence intensity (a.u.)

Question: How did the binding signal turn out when “AAATTCTGTTCTTGCCTCTGACGAAGCTGTCCATATAGTACGGAGTCACCTAGTGCAG” was run?
Answer: 4240 fluorescence intensity (a.u.)

Question: “AAACCGATCAAAATCCCGGACGCCACCGCCGGCTCTCGCGCGGAGTCACCTAGTGCAG” was tested. Which binding signal did it give?
Answer: 10500 fluorescence intensity (a.u.)

Question: For “TGCCATGTTTCTTGCATAGTTGCTGATTCTATCACTTCCTCGGAGTCACCTAGTGCAG”, which binding signal is on record?
Answer: 3500 fluorescence intensity (a.u.)

Question: Which binding signal does the source give for “AGAGGATGACGATGGCGACGGCGGCAGCGGCGGAGGAGGCCGGAGTCACCTAGTGCAG” here?
Answer: 3280 fluorescence intensity (a.u.)

Question: For “GAAATTGGCAGTTTGTTTGCCTGTGTTGGCACCTACACAACGGAGTCACCTAGTGCAG”, which binding signal is on record?
Answer: 4340 fluorescence intensity (a.u.)
